# Primary screen of a compound library

Sequences of proteins named here, by UniProt entry; tags and fusion partners are left off. Residues count along the entry.
UniProt I6X8D2, whole entry: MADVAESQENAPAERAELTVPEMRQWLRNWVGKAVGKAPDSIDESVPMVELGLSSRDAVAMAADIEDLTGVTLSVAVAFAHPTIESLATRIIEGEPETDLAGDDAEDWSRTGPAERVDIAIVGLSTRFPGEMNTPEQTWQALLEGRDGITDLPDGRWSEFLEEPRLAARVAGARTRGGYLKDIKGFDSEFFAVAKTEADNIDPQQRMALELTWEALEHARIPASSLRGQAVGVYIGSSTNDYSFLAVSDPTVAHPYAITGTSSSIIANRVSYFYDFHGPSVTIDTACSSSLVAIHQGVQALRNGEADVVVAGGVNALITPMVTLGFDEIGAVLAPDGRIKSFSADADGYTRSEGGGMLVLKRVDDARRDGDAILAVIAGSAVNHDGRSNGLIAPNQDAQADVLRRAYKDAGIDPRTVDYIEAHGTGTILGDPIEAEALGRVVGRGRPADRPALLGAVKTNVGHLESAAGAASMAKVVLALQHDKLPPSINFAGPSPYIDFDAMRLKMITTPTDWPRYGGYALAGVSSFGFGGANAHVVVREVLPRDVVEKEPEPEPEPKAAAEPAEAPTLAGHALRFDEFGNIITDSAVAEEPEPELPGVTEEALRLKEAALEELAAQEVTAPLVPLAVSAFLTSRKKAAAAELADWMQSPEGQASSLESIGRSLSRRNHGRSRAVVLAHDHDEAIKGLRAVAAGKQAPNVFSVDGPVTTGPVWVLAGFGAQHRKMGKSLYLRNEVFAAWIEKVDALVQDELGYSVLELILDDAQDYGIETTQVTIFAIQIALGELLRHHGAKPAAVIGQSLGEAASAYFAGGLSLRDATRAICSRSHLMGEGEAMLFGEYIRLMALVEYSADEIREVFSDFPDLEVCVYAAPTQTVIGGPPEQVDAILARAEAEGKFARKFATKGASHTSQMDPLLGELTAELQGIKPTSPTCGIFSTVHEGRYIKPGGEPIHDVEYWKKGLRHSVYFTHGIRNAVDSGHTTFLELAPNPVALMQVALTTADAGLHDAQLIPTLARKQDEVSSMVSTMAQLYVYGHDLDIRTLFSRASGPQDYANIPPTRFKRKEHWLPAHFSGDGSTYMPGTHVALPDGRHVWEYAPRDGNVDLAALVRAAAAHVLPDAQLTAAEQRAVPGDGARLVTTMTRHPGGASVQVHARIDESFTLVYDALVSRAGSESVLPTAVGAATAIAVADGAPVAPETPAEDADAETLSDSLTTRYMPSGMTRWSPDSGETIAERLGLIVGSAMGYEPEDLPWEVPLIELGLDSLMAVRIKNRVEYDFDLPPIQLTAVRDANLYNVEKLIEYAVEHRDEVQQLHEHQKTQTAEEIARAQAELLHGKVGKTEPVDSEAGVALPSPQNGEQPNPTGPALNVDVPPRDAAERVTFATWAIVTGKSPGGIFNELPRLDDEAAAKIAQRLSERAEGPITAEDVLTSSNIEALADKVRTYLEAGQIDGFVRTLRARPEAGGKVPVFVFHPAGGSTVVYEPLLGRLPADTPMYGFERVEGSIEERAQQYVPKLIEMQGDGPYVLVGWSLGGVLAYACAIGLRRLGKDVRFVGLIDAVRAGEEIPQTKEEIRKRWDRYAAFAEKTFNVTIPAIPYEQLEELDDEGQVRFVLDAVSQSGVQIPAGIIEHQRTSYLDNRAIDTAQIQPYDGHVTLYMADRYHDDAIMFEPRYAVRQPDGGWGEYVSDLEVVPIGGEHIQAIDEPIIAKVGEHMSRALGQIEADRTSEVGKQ
UniProt A4I591, 1-473: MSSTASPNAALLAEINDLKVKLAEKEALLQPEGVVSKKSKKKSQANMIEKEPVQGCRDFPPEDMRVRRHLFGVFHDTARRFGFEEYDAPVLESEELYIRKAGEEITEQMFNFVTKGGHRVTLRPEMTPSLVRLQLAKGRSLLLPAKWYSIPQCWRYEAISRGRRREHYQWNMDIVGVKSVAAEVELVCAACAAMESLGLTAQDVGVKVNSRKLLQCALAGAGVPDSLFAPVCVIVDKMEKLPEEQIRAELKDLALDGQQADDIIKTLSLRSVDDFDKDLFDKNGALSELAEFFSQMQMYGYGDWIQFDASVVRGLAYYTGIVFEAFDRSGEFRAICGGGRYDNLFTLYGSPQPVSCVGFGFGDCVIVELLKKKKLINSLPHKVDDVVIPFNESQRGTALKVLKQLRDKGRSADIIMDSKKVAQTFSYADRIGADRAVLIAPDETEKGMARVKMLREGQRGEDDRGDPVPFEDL
UniProt P9WNZ1, whole entry: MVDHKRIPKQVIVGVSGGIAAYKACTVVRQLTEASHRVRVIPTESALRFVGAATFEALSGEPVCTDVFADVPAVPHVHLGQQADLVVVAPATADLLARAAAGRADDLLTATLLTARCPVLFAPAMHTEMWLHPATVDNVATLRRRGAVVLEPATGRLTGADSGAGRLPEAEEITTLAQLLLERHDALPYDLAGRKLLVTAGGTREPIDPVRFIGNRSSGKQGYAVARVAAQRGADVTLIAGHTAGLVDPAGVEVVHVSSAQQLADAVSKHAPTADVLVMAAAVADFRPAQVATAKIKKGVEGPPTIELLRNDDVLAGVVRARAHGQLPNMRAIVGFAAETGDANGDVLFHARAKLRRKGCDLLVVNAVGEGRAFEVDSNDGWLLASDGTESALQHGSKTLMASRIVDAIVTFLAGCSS

Measurements from “University of Dundee, Small-Polar-MMV Screening Library” (2021), ChEMBL document CHEMBL3988442.

The filed quantity is “Percent Effect” (%). The record does not define 0% and 100%; most values in the screen are far below 50% and negative numbers occur (in some assays of this library far below -100). Compounds were drawn at random from those tested, without regard to their results.

Pks13 thioesterase: 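Polyketide synthase Pks13, Mycobacterium tuberculosis (UniProt I6X8D2). Enzyme assay of the thioesterase domain of polyketide synthase 13; the read-out is not stated. Tested at 30 µM. Higher reads as stronger inhibition (inferred from which compounds were picked for retests). Of about 67,000 compounds tested this way, about 300 (0.46%) reached 50% or more in at least one test.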
LiHisRS: 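Enzyme assay of histidyl-tRNA synthetase; the read-out is not stated. Target: Histidine-tRNA ligase, Leishmania infantum (UniProt A4I591). Compounds at 30 µM. The record gives no direction; compounds that gave an IC50 in retests scored well above the rest, so higher reads as stronger inhibition. The assay is labelled LdHisRS but filed under L. infantum. Of about 69,000 compounds tested this way, about 410 (0.6%) reached 50% or more in at least one test.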
CoaBC: 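Coenzyme A biosynthesis protein CoaBC, Mycobacterium tuberculosis (UniProt P9WNZ1). Enzyme assay of CoaBC with a phosphate dye (Biomol Green) read at 650 nm. Tested at 30 µM. Higher reads as stronger inhibition, judged from the few compounds that gave an IC50. Most strong results did not repeat in a second test. Of about 67,000 compounds tested this way, about 40 (0.06%) reached 50% or more in at least one test.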

Result for CC(C)[C@@H]1CN(Cc2ccsc2)C[C@H]1NS(=O)(=O)N(C)C was Pks13 thioesterase: -13.96%; LiHisRS: 20%; CoaBC: 2.893%. For O=S(=O)(C1CC1)N1CC[C@]2(C[C@H](OCC3CCOCC3)CO2)C1 the result was Pks13 thioesterase: -23.77%; LiHisRS: 0%; CoaBC: 5.906%. For CC(Cc1ccco1)NS(=O)(=O)N1CCCCCC1 (stereo not drawn) the result was Pks13 thioesterase: -27.94%; LiHisRS: 9.211%; CoaBC: 1.935%. Cc1nc(C)n(Cc2cccc(NC3CCN(C)C3=O)c2)n1 (stereo not drawn) gave Pks13 thioesterase: -24.12%; LiHisRS: 6.667%; CoaBC: 4.634%. CNC(=O)[C@H]1C[C@@H]2CN(S(=O)(=O)c3ccccc3)C[C@@H]2N1C(C)=O read Pks13 thioesterase: -19.7%; LiHisRS: 14.15%; CoaBC: -3.182%. With Cc1nc(COCC2CN(C(N)=O)Cc3nccn3C2)cs1 (stereo not drawn) the screen gave Pks13 thioesterase: 6.055%; LiHisRS: 5.66%; CoaBC: 4.878%. Result for Cc1nonc1C1CCCN1C(=O)c1cc2n(n1)CCCNC2 (stereo not drawn) was Pks13 thioesterase: -3.81%; LiHisRS: 5.714%; CoaBC: 2.418%. With COc1cc(I)c(Cl)cc1C(=O)N(C)CC(=O)NC(C)(C)C the screen gave Pks13 thioesterase: 7.389%; LiHisRS: 26.32%; CoaBC: 2.785%.

For Cc1cc(C)n(CC2CCCN2C(=O)c2cc[nH]n2)n1 (stereo not drawn) the result was Pks13 thioesterase: -11.33%; LiHisRS: 21.62%; CoaBC: 0.5222%. Result for NC(=O)CN1CCCN(C(=O)c2ccn(-c3ccccc3)n2)CC1 was Pks13 thioesterase: -11.95%; LiHisRS: 20.19%; CoaBC: 4.641%. With Cn1ccnc1CN1CCN(c2ncnc3ccsc23)CC1 the screen gave Pks13 thioesterase: -18.88%; LiHisRS: 10.96%; CoaBC: -5%. Result for CCn1cnnc1CNC(=O)NCC(O)c1ccc(OC)cc1 (stereo not drawn) was Pks13 thioesterase: -34.24%; LiHisRS: 11.67%; CoaBC: 0.2141%. For c1ccc(Cc2nnc(CN3CCc4cncnc4C3)o2)cc1 the result was Pks13 thioesterase: -23.48%; LiHisRS: 27.52%; CoaBC: 7.597%. With CN1C(=O)[C@H]2CC[C@@H]1CN(Cc1cccc(OCc3ccccn3)c1)C2 the screen gave Pks13 thioesterase: -34.47%; LiHisRS: 17.5%. For O=C(Cn1nc(Br)nc1Br)N1CCCCC1 the result was Pks13 thioesterase: -6.605%; LiHisRS: 17.24%; CoaBC: 3.579%. O=C1CO[C@@H]2CN(CC3CCOCC3)C[C@H]2N1Cc1ccncc1 read Pks13 thioesterase: 0.5701%; LiHisRS: 22.34%; CoaBC: 11.15%.

With Cc1nc(Nc2ncccn2)cc(C2CCN(CC(C)C)C2)n1 (stereo not drawn) the screen gave Pks13 thioesterase: 5.02%; LiHisRS: 8%; CoaBC: 0.1239%. CCSCCN1CCCN(S(C)(=O)=O)CC1 read Pks13 thioesterase: -5.152%; LiHisRS: 11.7%; CoaBC: -1.01%. For Cc1cc(N(C)CCN(C)C2CCCC2)n2nc(C)cc2n1 the result was Pks13 thioesterase: -28.74%; LiHisRS: 22.86%; CoaBC: -4.968%. NC(=O)c1ccc(NC(=O)N2CCN(c3cccs3)CC2)c(F)c1 read Pks13 thioesterase: 9.458%; LiHisRS: 17.05%; CoaBC: -0.1229%. Result for Cc1cc(C(=O)N2CCCC(N3CCCCCC3)C2)nn1C(C)(C)C (stereo not drawn) was Pks13 thioesterase: -1.872%; LiHisRS: 6.452%; CoaBC: 5.134%. For O=C(c1ccccc1)N1CCCn2c(CN3CCCCC3)nnc2C1 the result was Pks13 thioesterase: 1.257%; LiHisRS: 23%; CoaBC: 0.618%. Result for CCc1cnc2c(c1Nc1ccccc1OC)c(=O)n(C)c(=O)n2C was Pks13 thioesterase: -12.79%; LiHisRS: 20.22%; CoaBC: 4.212%. For Cn1cc(CN2CC3(CCN(C(=O)c4cscn4)C3)C2)cn1 the result was Pks13 thioesterase: -24.89%; LiHisRS: 13.33%; CoaBC: 2.366%.